Source: patent publication US10457914B2, “Optimized methods for differentiation of cells into cells with hepatocyte and hepatocyte progenitor phenotypes, cells produced by the methods, and methods for using the cells” (priority 2008, dated 2019)
For at least one compound, name, drawing or mass did not settle the structure.

Key:
rat MAPCs = test: In vitro hepatic differentiation of rat MAPCs, read out by qRT-PCR; format: cell-based; settings: high concentration of dexamethasone together with low concentration of insulin in differentiation medium
Description: Undifferentiated MAPCs were expanded at large scale until several million cells were obtained. Cells then were plated at 50,000-60,000 cells/cm^2 in Matrigel (2%) coated wells. Initially, cells were cultured in expansion medium until they reached 80-90% confluency 16 hours later. Then, cells were washed twice with PBS and the medium was switched to differentiation medium. Basal differentiation medium consisted of DMEM (60%), MCDB (40%), ascorbic acid (IX), penicillin/streptomycin (1×), beta-mercaptoethanol, ITS (0.25×), LA-BSA (0.25×) and dexamethasone (10^-6M). Understanding the molecular signals favoring liver development is essential for the development of a logical in vitro differentiation protocol to modulate stem cell differentiation towards the hepatic fate. With this in mind, different cytokines at variable concentrations and chronological orders were investigated for their hepatocyte inducing capacity in […]. Cytokines tested included Nodal, its co-receptor Cripto, ActivinA, Wnt3a, BMP4, bFGF, aFGF, FGF8b, EGF, Nicotinamide, heparan sulphate proteoglycan, Oncostatin M, HGF and Follistatin. All cytokines were purchased from R&D, Minneapolis, USA. Apart from the cytokines, medium components also play an important role in guiding cells towards a specific fate. […]

[1] = tested on: differentiating rat MAPCs; test: Albumin secretion into the medium (rat albumin specific ELISA); format: cell-based; settings: on decreasing the concentration of dexamethasone

## C[C@@H]1C[C@H]2[C@@H]3CCC4=CC(=O)C=C[C@]4(C)[C@@]3(F)[C@@H](O)C[C@]2(C)[C@@]1(O)C(=O)CO [dexamethasone]
Rat MAPCs
  expression of mature markers (albumin, TAT): enhanced expression of some mature markers
[1]
  secretion of albumin in the medium: reduced secretion of albumin
